Source: PubChem BioAssay AID652243 (Drosophila RNAi Screening Center, 2013)
Aim: 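Fly regulators of androgen-dependent reporter output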 (primary screen). System: Drosophila S2R+ cells. Reagent: long dsRNA against Drosophila genes. Time to read-out: 72 h (48 h, then 24 h hormone). Conditions: synthetic androgen R1881 at 10 nM for 24 h. Detection: 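Per-well raw luminescence of the androgen-driven firefly reporter and of the Renilla control, two replicates each, without normalisation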. Direction: firefly reporter light: higher = more light from androgen-responsive reporter; Renilla control light: higher = more constitutive control signal (cell number, transfection). Hit rule: 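Across duplicate plates, a knock-down whose log firefly/Renilla ratio shifted a set fold down or up from the GFP/LacZ control mean was a hit; the downward cut appears as both 1.5 and 3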. Meaning of the calls: active = hit: reporter lowered or raised; inactive = no hit.
In all, the deposit lists about 24,000 reagents; shown is an unselected part of those that have a named target and a result. Over the whole deposit, 246 (1%) got an active call. 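Plates not normalised; calls are printed but the firefly/Renilla ratio behind them is not deposited; fold cut for lowering reported inconsistently.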 Raw values are not corrected between plates. Reagents against one gene are numbered here. No sequences are given here. The record does not give: the amount of reagent.

no.	predicted target	reagent	firefly reporter light, replicate 1	firefly reporter light, replicate 2	Renilla control light, replicate 1	Renilla control light, replicate 2	Call
1	t-Grip84 (GeneID 38852)	1	1.36e5	1.82e5	1.44e6	2.09e6	inactive
2	Chi (GeneID 37837)	1	7.71e5	7.49e5	1.43e6	1.43e6	inactive
3	Chi (GeneID 37837)	2	3.46e5	7.51e5	1.04e6	1.55e6	inactive
4	Tdc2 (GeneID 246620)	1	3.36e5	2.28e5	1.80e6	1.37e6	inactive
5	Tdc2 (GeneID 246620)	2	8.78e5	7.68e5	1.57e6	1.48e6	inactive
6	CG30087 (GeneID 246446)	1	7.89e5	6.40e5	2.79e6	2.53e6	inactive
7	CG30087 (GeneID 246446)	2	4.18e5	3.19e5	8.70e5	4.21e5	inactive
8	CG42269 (GeneID 38689)	1	1.02e5	95618	1.00e6	1.33e6	inactive
9	CG42269 (GeneID 38689)	2	1.07e5	1.02e5	1.05e6	1.14e6	inactive
10	CG42269 (GeneID 38689)	3	9.18e5	9.03e5	9.39e5	1.01e6	inactive
11	CG42269 (GeneID 38689)	4	2.63e5	2.81e5	3.21e5	3.58e5	inactive
12	mRF1 (GeneID 34720)	1	8.21e5	8.60e5	1.52e6	1.30e6	inactive
13	mRF1 (GeneID 34720)	2	3.00e5	2.95e5	1.16e6	1.16e6	active
14	CG17349 (GeneID 35209)	1	1.70e5	2.08e5	1.64e6	1.56e6	inactive
15	Cpr64Aa (GeneID 38508)	1	2.32e5	2.21e5	2.11e6	1.69e6	inactive
16	Cpr64Aa (GeneID 38508)	2	8.06e5	5.58e5	5.35e5	4.59e5	inactive
17	CG7509 (GeneID 38579)	1	8.20e5	6.41e5	1.35e6	1.12e6	inactive
18	Cdk12 (GeneID 40385)	1	47661	48979	3.22e5	3.55e5	inactive
19	Cdk12 (GeneID 40385)	2	7.01e5	7.05e5	1.55e6	1.38e6	inactive
20	Cdk12 (GeneID 40385)	3	2.83e5	2.49e5	5.39e5	5.39e5	inactive
21	IntS1 (GeneID 37840)	1	6.84e5	8.26e5	1.05e6	1.10e6	inactive
22	IntS1 (GeneID 37840)	2	2.01e6	1.03e6	3.99e6	1.50e6	inactive
23	CG7080 (GeneID 42609)	1	46422	51230	6.67e5	7.60e5	inactive
24	CG7080 (GeneID 42609)	2	1.47e6	8.93e5	5.32e6	2.20e6	inactive

Hits, of those listed so far:
predicted target	reagent	firefly reporter light, replicate 1	firefly reporter light, replicate 2	Renilla control light, replicate 1	Renilla control light, replicate 2	Call
mRF1 (GeneID 34720)	2	3.00e5	2.95e5	1.16e6	1.16e6	active
